# Results from the supplement of paper PMC10727501.
# This is one part of the list. Repeats in this data set agree poorly, so a single value says little.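 Free-swimming zebrafish larvae were scored for O-bend response probability to dark flashes (naive: first five; training: remaining flashes of four 60-flash blocks; test: later 60-flash block) and for turning toward alternating leftward/rightward LED motion (OMR). Six treated larvae were compared with sixty 0.1% DMSO controls; |SSMD|≥2 defined a hit.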
# Test system: Danio rerio larvae (5 dpf, TLF)
# Assay: OMR-Perf (SSMD vs DMSO vehicle); higher = higher than vehicle (e.g. higher dark-flash O-bend response probability, or better optomotor performance)
# Settings: 10 µM; pre-incubation: 30-90 min
row,SMILES,OMR-Perf
1,COc1ccc([C@@H]2CC(=O)c3c(O)cc(O[C@@H]4O[C@H](CO[C@@H]5O[C@@H](C)[C@H](O)[C@H](O)[C@H]5O)[C@@H](O)[C@H](O)[C@H]4O)cc3O2)cc1O [Hesperidin],-0.476
2,O=C(/C=C/c1cccnc1)NCCCCC1CCN(C(=O)c2ccccc2)CC1,0.149
3,CCOC(=O)[C@H](CCc1ccccc1)N[C@H]1CS[C@H](c2cccs2)CN(CC(=O)O)C1=O.Cl [Temocapril HCl],-0.206
4,COC(=O)C1=C(C)NC(C)=C(C(=O)OC)C1c1ccccc1[N+](=O)[O-] [Nifedipine],-0.137
5,CCNC(=O)CCC/C=C\C[C@@H]1[C@@H](/C=C/C(O)CCc2ccccc2)[C@H](O)C[C@@H]1O (some centres undefined) [Bimatoprost],-0.376
6,Oc1ccc(-c2nc(-c3ccc(F)cc3)c(-c3ccncc3)[nH]2)cc1,-0.182
7,COc1ccc(-c2cc(=O)c3c(O)cc(O)cc3o2)cc1O [Diosmetin],-0.351
8,CC1(C)S[C@H]2[C@H](NC(=O)[C@H](N)c3ccc(O)cc3)C(=O)N2[C@H]1C(=O)O [Amoxicillin],0.306
9,CC[C@]1(O)C[C@@H]2CN(CCc3c([nH]c4ccccc34)[C@@](C(=O)OC)(c3cc4c(cc3OC)N(C=O)[C@H]3[C@@](O)(C(=O)OC)[C@H](OC(C)=O)[C@]5(CC)C=CCN6CC[C@@]43[C@@H]65)C2)C1.O=S(=O)(O)O [Vincristine],0.178
10,CC(C)[C@H](N)C(=O)OCCOCn1cnc2c(=O)[nH]c(N)nc21.Cl [Valaciclovir HCl],0.116
11,Oc1nc(-c2ccc(C(F)(F)F)cc2)nc2c1CSCC2,0.2
12,Cc1nnc(C(C)C)n1C1CC2CCC(C1)N2CC[C@H](NC(=O)C1CCC(F)(F)CC1)c1ccccc1 (some centres undefined) [Maraviroc],0.557
13,N#Cc1ccc(-c2csc(NN=C3CCCC3)n2)cc1 [Remodelin],-0.104
14,C[C@H](Cn1cnc2c(N)ncnc21)OCP(=O)(O)O [Tenofovir],0.0129
15,CCC[C@@H]1C[C@@H](C(=O)N[C@H]([C@H]2O[C@@H](SC)[C@H](OP(=O)(O)O)[C@@H](O)[C@H]2O)[C@H](C)Cl)N(C)C1 [Clindamycin phosphate],-0.247
16,COc1cc(O)cc([C@@H]2CC(=O)c3c(O)cc(O[C@@H]4O[C@H](CO)[C@@H](O)[C@H](O)[C@@H]4O[C@@H]4O[C@@H](C)[C@H](O)[C@@H](O)[C@@H]4O)cc3O2)c1 [Neohesperidin],-1.33
17,O=C(NNc1nc2cc(F)ccc2n2cccc12)c1cnccn1,-0.424
18,CCOC(=O)c1ccc(N)cc1 [Benzocaine],-0.14
19,C[C@@H]1[C@H](O)[C@@H](C)/C=C/C=C/C=C/C=C/C=C/C=C/C=C/[C@H](O[C@@H]2O[C@H](C)[C@@H](O)[C@H](N)[C@@H]2O)C[C@@H]2O[C@@](O)(C[C@@H](O)C[C@@H](O)[C@H](O)CC[C@@H](O)C[C@@H](O)CC(=O)O[C@H]1C)C[C@H](O)[C@@H]2C(=O)O [Amphotericin B],-0.267
20,Cl.Cl.Fc1cc(-c2cccc3ncc(-c4cnn(C5CCNCC5)c4)nc23)cc(F)c1CN1CCOCC1,-0.732

row,SMILES,OMR-Perf
1,C=C(NC(=O)C(=C)NC(=O)c1csc(C2=N[C@@H]3c4csc(n4)[C@H]4NC(=O)c5csc(n5)[C@H]([C@](C)(O)[C@@H](C)O)NC(=O)[C@H]5CSC(=N5)/C(=C/C)NC(=O)[C@H]([C@@H](C)O)NC(=O)c5csc(n5)[C@]3(CC2)NC(=O)[C@H](C)NC(=O)C(=C)NC(=O)[C@H](C)NC(=O)[C@H]([C@@H](C)CC)N[C@@H]2C=Cc3c([C@H](C)O)cc(nc3[C@H]2O)C(=O)O[C@@H]4C)n1)C(N)=O [Thiostrepton],0.0385
2,COc1ccc(-c2oc3c(CC=C(C)C)c(OC4O[C@H](CO)[C@@H](O)[C@H](O)[C@H]4O)cc(O)c3c(=O)c2OC2O[C@@H](C)[C@H](O)[C@@H](O)[C@@H]2O)cc1 (some centres undefined) [Icariin],-0.157
3,CC(C)NCC(O)COc1cccc2[nH]ccc12 (centres undefined) [Pindolol],-0.138
4,NC(CO)(CO)CO [Trometamol],0.16
5,Cc1cc(-c2ncc(CC(=O)Nc3ccc(-c4cnccn4)cn3)cc2C)ccn1,-0.072
6,Cc1c[nH]c(-c2cnc(NCCNc3ccc(C#N)cn3)nc2-c2ccc(Cl)cc2Cl)n1.Cl,-0.242
7,Cc1oncc1C(=O)Nc1ccc(C(F)(F)F)cc1 [Leflunomide],-0.876
8,C[C@H]1CCN(C(=O)CC#N)C[C@@H]1N(C)c1ncnc2[nH]ccc12,-0.349
9,COc1cc2c(Nc3ccc(NC(=O)c4ccccc4)cc3)ncnc2cc1OCCCN1CCOCC1,-0.255
10,COc1ccc(C2(C#N)CCC(C(=O)O)CC2)cc1OC1CCCC1 (centres undefined) [Cilomilast],-0.308
11,CN(C)CCN1C(=O)c2cccc3cc(N)cc(c23)C1=O [Amonafide],-0.147
12,C/C=C1/[C@H]2C=C(C)C[C@]1(N)c1ccc(=O)[nH]c1C2 [(-)-Huperzine A (HupA)],-0.754
13,CCCC(=O)O[C@@]1(C(=O)COC(C)=O)CC[C@H]2[C@@H]3C[C@H](F)C4=CC(=O)C=C[C@]4(C)[C@]3(F)[C@H](O)C[C@@]21C [Difluprednate],0.497
14,COc1cccc(-c2cc(=O)c3ccccc3o2)c1N,-0.491
15,COc1cc([C@H]2c3cc4c(cc3[C@@H](O[C@@H]3O[C@@H]5CO[C@@H](c6cccs6)O[C@H]5[C@H](O)[C@H]3O)[C@H]3COC(=O)[C@H]23)OCO4)cc(OC)c1O [Teniposide],-0.256
16,Nc1ncnc2c1c(-c1cccc(OCc3ccccc3)c1)cn2[C@H]1C[C@H](CN2CCCC2)C1,-0.289
17,OC[C@H]1O[C@@H](OCCc2ccc(O)cc2)[C@H](O)[C@@H](O)[C@@H]1O [Salidroside],0.341
18,Cc1ccc(NC(=O)c2cccc(N(C)C)c2)cc1NC(=O)c1ccc(O)cc1,-0.146
19,CN1C(CCl)Nc2cc(Cl)c(S(N)(=O)=O)cc2S1(=O)=O (centres undefined) [Methyclothiazide],-0.556

# Not a retest: entries from further up.
row,SMILES,OMR-Perf
17,OC[C@H]1O[C@@H](OCCc2ccc(O)cc2)[C@H](O)[C@@H](O)[C@@H]1O [Salidroside],0.341
18,Cc1ccc(NC(=O)c2cccc(N(C)C)c2)cc1NC(=O)c1ccc(O)cc1,-0.146
19,CN1C(CCl)Nc2cc(Cl)c(S(N)(=O)=O)cc2S1(=O)=O (centres undefined) [Methyclothiazide],-0.556
